Experimental data as given in patent US20120135880A1.
Results are given in words; binding and its absence hold for the method and conditions named. Some entries that bind do so weakly or less than the wild type.

Amino acid sequences for entries named in this document (tags omitted). A change or cut given only in a name is not applied to a line headed by its entry.
UniProt Q9HCN6: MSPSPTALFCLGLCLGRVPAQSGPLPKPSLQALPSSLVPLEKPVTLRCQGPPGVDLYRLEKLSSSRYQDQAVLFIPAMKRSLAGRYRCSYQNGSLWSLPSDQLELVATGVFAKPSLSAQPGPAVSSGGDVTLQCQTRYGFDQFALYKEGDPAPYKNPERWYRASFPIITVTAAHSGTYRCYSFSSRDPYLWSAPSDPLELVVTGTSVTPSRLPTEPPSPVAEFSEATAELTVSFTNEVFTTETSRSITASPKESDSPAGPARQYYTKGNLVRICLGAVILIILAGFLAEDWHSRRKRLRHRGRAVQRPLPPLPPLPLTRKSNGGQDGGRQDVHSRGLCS

Assays:
[1] = target: T1, collagen-related peptide (CRP), non-crosslinked (POG)10 triple helix; test: sedimentation velocity AUC size distributions, legend of FIG. 3B
T1 sequence (peptide, O is hydroxyproline (second residue of every POG triplet)): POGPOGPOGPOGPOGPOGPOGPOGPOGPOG

[2] = target: T1, collagen-related peptide (CRP), non-crosslinked (POG)10 triple helix; test: sedimentation velocity analytical ultracentrifugation; 1:1, 4:1 and 8:1 GPVI:CRP mixtures (10, 40, 80 µM GPVI; the text gives 10 µM CRP for the parallel sedimentation equilibrium mixtures), with GPVI alone and the 1:1 complex of panel A for comparison
[3] = target: collagen-binding domain (CBD) of human glycoprotein VI (GPVI), residues Q1-T183, recombinant, refolded from E. coli inclusion bodies (human) (UniProt Q9HCN6); test: analytical ultracentrifugation (self-association of the GPVI CBD); in solution, analytical ultracentrifugation, up to 100 µM; construct lacks the stalk region
[4] = target: T1, collagen-related peptide (CRP), non-crosslinked (POG)10 triple helix; test: sedimentation velocity and equilibrium AUC of 1:1, 4:1 and 8:1 GPVI:CRP mixtures; 1:1 complex in the first sample, higher-order complexes in the others; two or three GPVI molecules per CRP triple helix (data not shown)

binding [1]: binds
binding [2]: binds
binding [3]: no binding (tested: 100 µM)
binding [4]: binds
Substance: collagen-binding domain (CBD) of human glycoprotein VI (GPVI), residues Q1-T183, recombinant, refolded from E. coli inclusion bodies (from UniProt Q9HCN6 21-203) (receptor)
